In article PMC8278236:
Results are given in words; binding and its absence hold for the method and conditions named. In cells and extracts the contact can be indirect. Some entries that bind do so weakly or less than the wild type. Tags and fused reporters may be left off the sequences shown.

Target: T1, His-tagged NlpI(Δss) (E. coli) (UniProt P0AFB1)
T1 sequence: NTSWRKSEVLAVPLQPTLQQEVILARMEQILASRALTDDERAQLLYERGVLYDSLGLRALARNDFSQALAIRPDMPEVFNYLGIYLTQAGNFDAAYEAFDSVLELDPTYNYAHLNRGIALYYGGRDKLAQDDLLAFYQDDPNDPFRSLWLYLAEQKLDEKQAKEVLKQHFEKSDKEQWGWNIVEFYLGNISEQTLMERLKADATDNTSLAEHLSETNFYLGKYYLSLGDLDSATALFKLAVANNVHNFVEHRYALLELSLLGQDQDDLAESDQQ
Experiment: pull-down; purified His-NlpI(Δss) and the supernatant of cells overexpressing a non-His-tagged PG endopeptidase mixed on TALON metal affinity resin, 4°C, 25 min; buffer A (50 mM Tris-HCl pH 8.0, 200 mM NaCl); three washes; SDS-PAGE with Coomassie staining; control resin with the supernatant only; only the target purified

B1: Non-His-tagged MepS (enzyme, UniProt P0AFV4 27-188)
chain: CSANNTAKNMHPETRAVGSETSSLQASQDEFENLVRNVDVKSRIMDQYADWKGVRYRLGGSTKKGIDCSGFVQRTFREQFGLELPRSTYEQQEMGKSVSRSNLRTGDLVLFRAGSTGRHVGIYIGNNQFVHASTSSGVIISSMNEPYWKKRYNEARRVLSRS
binding: binds
